PubChem BioAssay AID1508588, Peter MacCallum Cancer Centre, 2020
Here is an unselected part of about 18,000 reagents. 790 of all reagents (4.4%) count as active. 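Calls rest on a combination of fold-change classes in drug and vehicle arms, not all shown here.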 Reagent sequences are not shown.

Screen: 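Genome-wide search for knock-downs that heighten vemurafenib action in melanoma cells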 (primary screen)
System: human WM266.4 melanoma cells (BRAF V600 mutant)
Knock-down reagent: siRNA pool against human genes, 40 nM
Timing: 96 h from transfection to read-out
Challenge: vemurafenib 300 nM (about IC25), added 48 h after transfection, for 48 h; comparison arm got DMSO vehicle only
Measurement: 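Cell gain (DAPI nuclei at end minus before drug, mean of two replicates) and medium lactate by absorbance per cell, both as ratio to non-targeting siRNA, also grouped into fold-change classes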
Direction: cell gain with vemurafenib: higher = more cell gain than with non-targeting siRNA; lactate per cell with vemurafenib: higher = more lactate made per cell
Rule for the call: 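a knock-down counts as enhancing when its fold-change classes with vehicle and with vemurafenib, taken together, show a stronger drug effect on cell gain or lactate per cell; exact class pairs not stated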
Meaning of the calls: active = enhances vemurafenib effect; inactive = no enhancement seen

| gene knocked down | cell gain with vemurafenib | lactate per cell with vemurafenib | activity call |
| --- | --- | --- | --- |
| SH3BP5L | 0.67 | 1.41 | inactive |
| U2AF2 | 0.22 | 2.28 | inactive |
| LRBA | 0.8 | 0.8 | inactive |
| ZNF382 | 0.33 | 1.8 | inactive |
| MBTPS2 | 0.6 | 1.4 | inactive |
| SPATA31G1 | -0.06 | 4.62 | inactive |
| C19orf33 | 0.11 | 0.24 | inactive |
| THRB | 0.43 | 1.02 | inactive |
| STXBP2 | 0.76 | 1.12 | inactive |
| SNHG29 | 0.41 | 0.63 | inactive |
| TAPBP | 0.18 | 1.77 | inactive |
| GPR146 | 0.31 | 0.64 | inactive |
| PLCXD2 | 0.21 | 1.94 | inactive |
| COG8 | 0.16 | 0.74 | inactive |
| STX2 | 1.35 | 0.63 | inactive |
| G3BP1 | 0.69 | 0.4 | inactive |
| CCDC77 | 0.83 | 0.53 | inactive |
| VPS4B | 0.44 | 0.36 | inactive |
| MORF4 | 0.43 | 1.12 | inactive |
| OR10A6 | 0.77 | 1.06 | inactive |
| C17orf78 | -0.07 | 2.5 | inactive |
| PSKH2 | 0.57 | 0.32 | inactive |
| TOP3A | 0.73 | 0.88 | inactive |
| COL3A1 | 0.29 | 0.66 | inactive |
| ADAM29 | 0.04 | 1.66 | inactive |
| KRTAP10-12 | 0.48 | 0.9 | inactive |
| BIVM | 0.83 | 0.6 | inactive |
| KXD1 | 0.19 | 0.02 | inactive |
| MYBPC1 | 0.4 | 0.82 | inactive |
| SPINK8 | 0.61 | 0.63 | inactive |
| DIPK1A | 0.72 | 0.72 | inactive |
| ZNF48 | 0.56 | 1.25 | inactive |
| AKR1C2 | 0.67 | 1.19 | inactive |
| H3C1 | 0.23 | 1.22 | inactive |
| DCUN1D5 | 0.93 | 0.56 | inactive |
| IYD | 1.02 | 0.64 | inactive |
| CTSW | 0.52 | 0.92 | inactive |
| ZMYM6 | 0.76 | 1.52 | inactive |
| XKR3 | 0.68 | 0.87 | inactive |
| MRPL40 | 0.95 | 0.96 | inactive |
| ARHGAP32 | 0.46 | 0.82 | inactive |
| ZC3H14 | 0.35 | 1.5 | inactive |
| RRAD | -0.13 | 1.45 | inactive |
| PLEKHB2 | 0.91 | 0.66 | inactive |
| RTN4IP1 | 0.13 | 2.48 | inactive |
| FZD2 | 0.62 | 0.75 | inactive |
| RAB44 | 0.88 | 0.68 | inactive |
| CDK13 | 0.68 | 1.34 | inactive |
| ST6GALNAC5 | 0.4 | 1.64 | inactive |
| OAT | 0.74 | 0.86 | inactive |
| DDX49 | 0.67 | 0.97 | inactive |
| TMEM74B | 0.54 | 1.4 | inactive |
| EBLN2 | 0.62 | 0.36 | inactive |
| DNAJB9 | 0.63 | 1.15 | inactive |
| PPP2R3A | 0.4 | 1.54 | inactive |
| WDR54 | 0.56 | 1.06 | inactive |
| STARD6 | 0.76 | 0.84 | inactive |
| SLC7A11 | 0.69 | 0.99 | inactive |
| CPED1 | 0.37 | 2.76 | inactive |
| NEFM | 0.75 | 0.65 | inactive |
| SCN11A | 0.66 | 0.4 | active |
| PAX8 | 0.1 | 3.29 | inactive |
| APBA2 | 1.28 | 0.69 | inactive |
| CCDC158 | 0.22 | 0.3 | inactive |
| UQCR10 | 0.57 | 2.45 | inactive |
| CUZD1 | 0.47 | 0.64 | inactive |
| DIP2B | 0.16 | 1.86 | inactive |
| GLYCTK | 0.73 | 0.7 | inactive |
| DEDD | 0.66 | 0.45 | inactive |
| AIMP1 | 0.08 | 0.78 | inactive |
| KIFAP3 | 1.24 | 0.56 | inactive |
| MAN1B1 | 0.46 | 0.6 | inactive |
| MRPL58 | 0.06 | 2.02 | inactive |
| ZNF800 | 0.78 | 1.16 | inactive |
| VSX2 | 0.72 | 1.07 | inactive |
| P4HA2 | 0.62 | 1.24 | inactive |
| ODF1 | 0.41 | 0.7 | inactive |
| TM9SF2 | 1.12 | 0.39 | active |
| SH3GLB2 | 0.54 | 1.82 | inactive |
| PRKCI | 0.75 | 0.54 | inactive |
| KDM2A | 0.31 | 1.17 | inactive |
| ATP1A2 | 1.11 | 0.5 | inactive |
| ZBTB11 | 0.92 | 0.85 | inactive |
| POLR2E | 0.26 | 1.21 | inactive |

6 successive reagents already listed:
| gene knocked down | cell gain with vemurafenib | lactate per cell with vemurafenib | activity call |
| --- | --- | --- | --- |
| C19orf33 | 0.11 | 0.24 | inactive |
| THRB | 0.43 | 1.02 | inactive |
| STXBP2 | 0.76 | 1.12 | inactive |
| SNHG29 | 0.41 | 0.63 | inactive |
| TAPBP | 0.18 | 1.77 | inactive |
| GPR146 | 0.31 | 0.64 | inactive |
